# Record: PubChem BioAssay AID1224830 (NIAID, 2016)
# Test: 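Regulators of TLR4 signalling towards TNF-alpha in macrophage-like cells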 (primary screen)
# Cells: human THP-1 monocytic leukaemia cells, TNF dual-luciferase reporter clone, PMA-differentiated to macrophage-like cells
# Reagent: siRNA pool against human genes, 50 nM
# Duration: LPS for 4 h, given about 3 days after siRNA transfection
# Challenge: bacterial LPS (TLR4 ligand), 10 ng/ml
# Measured: 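TNF firefly reporter luminescence divided by renilla, normalised to the plate median, then turned into a robust z-score for each replicate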
# Scale: TNF reporter robust z-score: higher = stronger TNF reporter response to LPS
# Rule for the call: 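Each well counts as active if its z-score is over 2.8 or under -1.5; controls are left without a call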
# Shown is one part, drawn at random, of about 18,000 deposited reagents. Over the whole deposit, about 2,900 (16%) were called active. 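Calls are made per well; low scores hint the gene aids the LPS response, high scores that it dampens it.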 Entries without a mark were called inactive. Repeated entries: four replicate wells of each siRNA pool.
Target gene,TNF reporter robust z-score
SRSF8,-0.8
SRSF8,-0.54
SRSF8,-0.79
SRSF8,-0.28
USP15,-0.97
USP15,0.12
USP15,0.11
USP15,-0.27
NID1,1.19
NID1,0.13
NID1,0.67
NID1,-0.76
MTSS2,0.38
MTSS2,1.87
MTSS2,1.67
MTSS2,2.1
MSI1,0.83
MSI1,0
MSI1,2.89 (active)
MSI1,-0.27
OR10P1,0.96
OR10P1,0.11
OR10P1,-0.08
OR10P1,0.61
PABPC1L2A,-0.57
PABPC1L2A,-0.79
PABPC1L2A,-1
PABPC1L2A,-0.68
OR2G3,0.75
OR2G3,0.44
OR2G3,0
OR2G3,1.19

7 entries already listed, sorted by “TNF reporter robust z-score”, high to low.
Target gene,TNF reporter robust z-score
NID1,1.19
NID1,0.13
USP15,0.12
USP15,0.11
USP15,-0.27
SRSF8,-0.28
USP15,-0.97

The results go on.
Target gene,TNF reporter robust z-score
IFNA5,1.18
IFNA5,1.99
IFNA5,2.34
IFNA5,-0.38
ORC5,3.38 (active)
ORC5,3.22 (active)
ORC5,0.05
ORC5,0.85
CRYM,0.26
CRYM,0.34
CRYM,-0.26
CRYM,1.17
ZBTB32,0.88
ZBTB32,0.48
ZBTB32,1.07
ZBTB32,0.56
